Reference: PubChem BioAssay AID1159584 (Peter MacCallum Cancer Centre, 2016)
Shown is a random part of about 18,000 reagents tested. Reagent sequences are not shown. The record does not give: the amount of reagent, the time to read-out.

Assay: 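Genes that CDH1-null MCF10A cells selectively depend on to survive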 (primary screen)
System: human MCF10A breast epithelial cells, parental and CDH1-null
Reagent: siRNA against human genes
Measurement: 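ATP luminescence (CellTiter-Glo) viability per line relative to mean mock wells over all plates, and the ratio of CDH1-null to parental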
Reading the numbers: CDH1-null / parental viability ratio: higher = CDH1-null cells survive relatively better than parental; CDH1-null viability vs mock: higher = more viable CDH1-null cells; parental viability vs mock: higher = more viable parental cells

CDH1-null / parental viability ratio | CDH1-null viability vs mock (fraction of mock) | parental viability vs mock (fraction of mock) | Target gene
1.05 | 0.98 | 0.93 | EFCAB6 (EF-hand calcium binding domain 6)
1.56 | 1.09 | 0.7 | PRKCZ (protein kinase C zeta)
1 | 0.92 | 0.92 | RAB7A (RAB7A, member RAS oncogene family)
1.11 | 0.8 | 0.72 | CPA4 (carboxypeptidase A4)
1.16 | 1 | 0.86 | NRG2 (neuregulin 2)
1.12 | 0.38 | 0.34 | LRMDA (leucine rich melanocyte differentiation associated)
1.23 | 0.8 | 0.65 | VAMP3 (vesicle associated membrane protein 3)
0.94 | 0.9 | 0.96 | GUCY1A2 (guanylate cyclase 1 soluble subunit alpha 2)
1.52 | 0.82 | 0.54 | BTBD10 (BTB domain containing 10)
0.77 | 0.48 | 0.62 | PCDHGB3 (protocadherin gamma subfamily B, 3)
1.43 | 0.97 | 0.68 | FSCN2 (fascin actin-bundling protein 2, retinal)
0.8 | 0.76 | 0.95 | EIF1B (eukaryotic translation initiation factor 1B)
1.16 | 1 | 0.86 | DAPK1 (death associated protein kinase 1)
1.16 | 0.74 | 0.64 | ZNF22-AS1 (ZNF22 antisense RNA 1)
0.73 | 0.44 | 0.6 | MSI1 (musashi RNA binding protein 1)
1.24 | 1.04 | 0.84 | ABCC3 (ATP binding cassette subfamily C member 3)
1.07 | 0.97 | 0.91 | ZNF618 (zinc finger protein 618)
1.05 | 0.58 | 0.55 | EVL (Enah/Vasp-like)
1.2 | 0.6 | 0.5 | AKR1D1 (aldo-keto reductase family 1 member D1)
1.04 | 1.06 | 1.02 | BMPR2 (bone morphogenetic protein receptor type 2)
0.93 | 0.53 | 0.57 | ERH (ERH mRNA splicing and mitosis factor)
1.07 | 0.73 | 0.68 | HOXB13 (homeobox B13)
1.08 | 0.95 | 0.88 | CRELD1 (CRELD disulfide isomerase 1)
0.86 | 0.44 | 0.51 | MGP (matrix Gla protein)
1 | 0.78 | 0.78 | TMPRSS11A (transmembrane serine protease 11A)
0.88 | 0.76 | 0.86 | LRRC8B (leucine rich repeat containing 8 VRAC subunit B)
0.93 | 0.54 | 0.58 | DCHS1 (dachsous cadherin-related 1)
1.2 | 0.97 | 0.81 | VAMP2 (vesicle associated membrane protein 2)
0.58 | 0.38 | 0.65 | TCAP (titin-cap)
1.05 | 0.84 | 0.8 | GPAT3 (glycerol-3-phosphate acyltransferase 3)
0.64 | 0.74 | 1.16 | RIOK3 (RIO kinase 3)
0.88 | 0.36 | 0.41 | CREB3L2 (cAMP responsive element binding protein 3 like 2)
0.79 | 0.83 | 1.05 | FAM149A (family with sequence similarity 149 member A)
1.05 | 0.82 | 0.78 | KCNJ16 (potassium inwardly rectifying channel subfamily J member 16)
1.12 | 0.37 | 0.33 | ATF3 (activating transcription factor 3)
1.08 | 0.8 | 0.74 | MUCL1 (mucin like 1)
1.15 | 1.08 | 0.94 | CRAMP1 (cramped chromatin regulator 1)
1 | 0.52 | 0.52 | ETV3 (ETS variant transcription factor 3)
1.22 | 0.66 | 0.54 | CCDC12 (coiled-coil domain containing 12)
1.22 | 0.78 | 0.64 | METRN (meteorin, glial cell differentiation regulator)
1 | 0.98 | 0.98 | PAM (peptidylglycine alpha-amidating monooxygenase)
0.8 | 0.6 | 0.75 | ZNF485 (zinc finger protein 485)
1.38 | 0.62 | 0.45 | PDP2 (pyruvate dehydrogenase phosphatase catalytic subunit 2)
0.94 | 0.96 | 1.02 | TRIM6-TRIM34 (TRIM6-TRIM34 readthrough)
1 | 0.84 | 0.84 | TMEM256 (transmembrane protein 256)
1.27 | 0.89 | 0.7 | VANGL1 (VANGL planar cell polarity protein 1)
1.11 | 1.15 | 1.04 | KCNG1
0.86 | 0.72 | 0.84 | SMS (spermine synthase)
0.68 | 0.57 | 0.84 | HHEX (hematopoietically expressed homeobox)
1.06 | 0.54 | 0.51 | SIGLEC15 (sialic acid binding Ig like lectin 15)
0.66 | 0.57 | 0.87 | H2BC1 (H2B clustered histone 1)
0.79 | 0.6 | 0.76 | SLC50A1
0.95 | 0.8 | 0.84 | FCGR2A (Fc gamma receptor IIa)
0.92 | 0.88 | 0.96 | MGST1 (microsomal glutathione S-transferase 1)
1.18 | 0.71 | 0.6 | CNPY4 (canopy FGF signaling regulator 4)
1.27 | 0.76 | 0.6 | ZDHHC18 (zDHHC palmitoyltransferase 18)
0.98 | 0.88 | 0.9 | ACY3 (aminoacylase 3)
0.87 | 0.71 | 0.82 | OR14C36 (olfactory receptor family 14 subfamily C member 36)
0.5 | 0.43 | 0.86 | TMEM160 (transmembrane protein 160)
0.98 | 1.01 | 1.03 | NHERF2 (NHERF family PDZ scaffold protein 2)
1.3 | 0.78 | 0.6 | CLU (clusterin)
1.31 | 0.63 | 0.48 | SLITRK3 (SLIT and NTRK like family member 3)
1.02 | 1 | 0.98 | FABP2 (fatty acid binding protein 2)
0.92 | 0.73 | 0.79 | XAGE1B (X antigen family member 1B)
1.16 | 0.86 | 0.74 | MT1F (metallothionein 1F)
1.22 | 1 | 0.82 | NPFF (neuropeptide FF-amide peptide precursor)
0.93 | 0.7 | 0.75 | MKRN1 (makorin ring finger protein 1)
0.99 | 0.8 | 0.81 | BOC (BOC cell adhesion associated, oncogene regulated)
